Test results reported in PMC11358031.
Results are given in words; binding and its absence hold for the method and conditions named. Some entries that bind do so weakly or less than the wild type.

By UniProt entry, the sequences of proteins in these tests, tags left out. Residues count along the entry.
UniProt P37023, residues 22-118: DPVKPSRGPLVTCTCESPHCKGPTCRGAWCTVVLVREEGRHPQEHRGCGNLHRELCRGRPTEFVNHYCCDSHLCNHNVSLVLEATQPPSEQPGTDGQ

Biological target: ALK1-Fc (human ALK1 ectodomain) (human) (UniProt P37023)
Test: SPR; ALK1-Fc immobilised on the chip; saturating BMP9 or BMP10 injected first, then a saturating amount of mAb2; two consecutive injections (n = 2); both purified

B1: bone morphogenetic protein-9 (BMP9) (ligand, UniProt Q9UK05 320-429)
chain: SAGAGSHCQKTSLRVNFEDIGWDSWIIAPKEYEAYECKGGCFFPLADDVTPTKHAIVQTLVHLKFPTKVGKACCVPTKLSPISVLYKDDMGVPTLKYHYEGMSVAECGCR
  binding: binds

B2: BMP10 (ligand, UniProt O95393 317-424)
chain: NAKGNYCKRTPLYIDFKEIGWDSWIIAPPGYEAYECRGVCNYPLAEHLTPTKHAIIQALVHLKNSQKASKACCVPTKLEPISILYLDKGVVTYKFKYEGMAVSECGCR
  binding: binds
